# Test results as given in patent publication US12070468B2, “Compositions and methods for the treatment and prevention of vascular malformations” (The Trustees of Columbia University in the City of New York, priority 2020, dated 2024).
# At least one structure is not confirmed: it was looked up by name or label, or the drawing left a doubt. Some entries share one result that the patent states for a list of compounds.
# What was measured:
# Type in all cases: cell-based, human
# [1] = system: LMEC (n=5) and VMEC (n=3); test: HTPS, results stated over all cell populations; conditions: 1 μM, 48 hours; for number (rank) in effectiveness in HTPS over all cell variants: all 8 cell variants
# Method: FIG. 2—PI3K/AKT pathway inhibitors differentially affect cell survival in a HTPS assay. Six endothelial cell populations isolated from venous malformation (VM) and lymphatic malformation (LM) patients (VMECs and LMECs), carrying mutations that hyperactivate PI3K signaling, were subjected HTPS with all inhibitors at 1 μM. Cell survival was determined after 48 hours and data presented as percent cell survival of cells treated with 1 μM compound versus vehicle-treated control±SD. Small molecules presented belonged to 2 classes of inhibitors: PI3K inhibitors and proteasome inhibitors (right). Dark gray line: 50% cell from starting number. […] Sirolimus to PI3K/mTOR inhibitors: ANOVA p=0.0017, post-hoc TTEST sirolimus vs. omipalisib p=0.0005. Sirolimus vs proteasome Inhibitors: ANOVA p=0.0013, post-hoc TTEST sirolimus vs. carfilzomib p<0.0001, sirolimus vs. delanzomib p=0.0093.
# FIG. 4 is a graph of cell viability of treated cells relative to vehicle treated cells. Using HTPS, VMEC/LMECs carrying variants in genes in the RAS/RAF/MAPK (LMEC10, VMEC13) or PI3K/AKT/mTOR (VMEC7/9, LMEC8/28/94/99) pathways (Table 3) were treated with 1 μM of 1344 compounds. Cell viability relative to vehicle treated cells was determined after 48 hours. Data presented for three PIs tested, and sirolimus, alpelisib, and trametinib, all of which have been used off label for vascular malformation patients.
# High throughput screening of drugs was performed using ECs from either LMs (LMECs) or VM (VMECs) carrying pathogenic variants in genes of the PI3K/AKT/mTOR pathway or variants predicted to hyperactivate the RAS/RAF/MAPK pathway (Table 3).
# Per optimization studies, about 500 cells were seeded into the wells of a 384-well plate and the VMECs or LMECs were treated with 1 μM of approximately 2500 drugs, which were either in clinical trials or FDA approved for another condition. The effects of the drugs on the proliferation and cell viability of the cells were assessed. Cell viability relative to vehicle treated cells was determined after 48 hours.
# [2] = system: LMEC28; test: Dose response, cell survival/viability after 48 hours; conditions: increasing doses
# Method: Cell survival was determined after 48 hours and data presented as percent cell survival of cells treated versus vehicle treated cells. Omipalisib, a PI3K/mTOR inhibitor, at a lower dose (*) was more efficacious than another PI3K/mTOR dual inhibitor, bimiralisib, in inhibiting LMEC proliferation. At 10 nM; TTEST p<0.03.
# LMEC28 cells which carries the Pik3r3;Tsc2 mutations were subjected to increasing amounts of oprozomib from 1 nM to 1 μM and cell viability determined after 48 hours as set forth in Example 2.
# [3] = system: LMECs (LMEC8, LMEC28, LMEC10) and control HdLECs; test: Proliferation rate by WST-8 assay; conditions: lower doses for alpelisib; compared to control HDLECs
# Method: FIG. 1—Inhibitors that target the PI3K/AKT and RAS/MAPK pathways display different efficacies against LMECs. […] Proliferation rate was determined by WST-8 assay and expressed as a fraction of the number of cells in vehicle controls±SD. *p<0.05. The large arrow denotes the range of human doses (FIGS. 1A and 1B) and murine doses (FIG. 1C) used in clinical setting.
# Cells with the […] mutations (Pik3ca, Pik3r3/Tsc2, Rasa1; LMEC8, LMEC28, and LMEC10 respectively), (Table 3) were treated with increasing log doses of alpelisib, a PI3K inhibitor, ranging from 1 μM to 100 μM. Proliferation rate was determined by WST-8 assay and expressed as a fraction of the number of cells in vehicle controls.
# Cells were also treated with U0126, a MAPK inhibitor, in increasing log doses ranging from 1 μM to 100 μM. At the concentration used in animal models (10 μM), U0126 suppressed the growth of all cells by 50% (FIG. 1C).
SMILES,number (rank) in effectiveness in HTPS over all cell variants [1],"efficacy in HTPS at inhibiting growth/survival of VMECs and LMECs, in words [1]","efficacy in HTPS at inhibiting growth/survival of VMECs and LMECs, in words ([1]; listed as omipalisib)","inhibition of LMEC28 survival/viability, in words [2]",sensitivity of LMECs with MAPK pathway activation / increased ERK signaling [3]
Cc1nc(NC(=O)N2CCC[C@H]2C(N)=O)sc1-c1ccnc(C(C)(C)C(F)(F)F)c1 [Alpelisib],28-383,–,–,–,–
"COc1ncc(-c2ccc3nccc(-c4ccnnc4)c3c2)cc1NS(=O)(=O)c1ccc(F)cc1F [Omipalisib, 2,4-difluoro-N-(2-methoxy-5-(4-(pyridazin-4-yl)quinolin-6-yl)pyridinyl)benzenesulfonamide]",–,significantly more efficacious than sirolimus,more efficacious in inhibiting vascular malformation cells than voxtalisib,significantly more efficacious than bimiralisib at every dose,–
CCN(CC)C(=S)SSC(=S)N(CC)CC [Disulfiram],–,efficaciously suppress VMEC and LMEC growth/viability more than that observed for drugs used off label,–,–,–
CO[C@H]1C[C@@H]2CC[C@@H](C)[C@@](O)(O2)C(=O)C(=O)N2CCCC[C@H]2C(=O)O[C@H]([C@H](C)C[C@@H]2CC[C@@H](O)[C@H](OC)C2)CC(=O)[C@H](C)/C=C(\C)[C@@H](O)[C@@H](OC)C(=O)[C@H](C)C[C@H](C)/C=C/C=C/C=C/1C [Sirolimus],28-383,–,–,–,resistant
